Experimental data: patent US9932368B2 (INFINITEC ACTIVOS S.L, priority 2013, dated 2018)
The star is where a group is joined. Palmitoyl = CCCCCCCCCCCCCCCC(=O)*

Assay: general procedure: Fmoc solid-phase peptide synthesis; 4-methylbenzhydrylamine (MBHA) resin (1.00 g, 0.65 mmol/g); DIPCDI/HOAt; re-coupling with HATU/DIEA or PyBOP/HOAt/DIEA
Settings: whole synthesis, scale of the general procedure 1.00 g resin

| Substance | purity (crude or final not stated) (220 nm) [%] | purity (crude or final not stated) (RP-HPLC, C18, 220 nm) |
| --- | --- | --- |
| Palmitoyl-WRFQWQFEQ-NH2 | 95.19 | greater than 95% |
| Palmitoyl-RGDGPQGPQ-NH2 | 97.82 | greater than 97% |
| Palmitoyl-RGDGANPNAAG-NH2 | 92.80 | greater than 90% |
